Measured values as given in PubChem BioAssay AID504467 (National Center for Advancing Translational Sciences (NCATS), 2011).
The campaign covered roughly 330,000 compounds. About 7,700 (2.3%) were called active. The shares of active, inactive and inconclusive entries below differ from those in the screen. The call rests on the fitted dose curve; in most records, active means well fitted inhibition curve with a large enough effect; inconclusive means small, poorly fitted or top-dose-only effect, or effect the other way; inactive means flat fitted curve, though single readings scatter. A potency beside an inconclusive call is a rough fit, not a confirmed value.

Assay: qHTS screen for small molecules that inhibit ELG1-dependent DNA repair in human embryonic kidney (HEK293T) cells expressing luciferase-tagged ELG1; further: nearly all actives have a fitted effect of over 55% in size
Settings: HEK293T ELG1-luciferase reporter, luminescence, 16 h, DNA damage induced by 5-fluorouridine; series mostly up to 46.1 µM
Method in brief: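 HEK293T cells expressing luciferase-tagged ELG1 (2,000/well) received 5-Fluorouridine plus compound or DMSO for 16 hr at 37 °C. Luciferase was read by ONE-Glo luminescence after 30 min at room temperature.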
Potency means the concentration at half of the fitted maximal effect.

SMILES	Potency
COc1ccc(/C=N/NC(=O)c2cc3c(ccc4ccccc43)o2)cc1OC	inconclusive: 18.3 µM [inhibitor, partial curve, poor fit]
Cc1ccc(-c2cc(C(F)F)n3ncc(C(=O)N4CCN(c5ccccn5)CC4)c3n2)cc1	active: 3.66 µM
COc1ccccc1C(=O)NC(=O)Cn1nc(C)c([N+](=O)[O-])c1C	inactive
COCCn1c(=O)[nH]c2cc(C(=O)N3CCN(c4ccc(OC)cc4)CC3)ccc2c1=O	inconclusive: 18.3 µM [inhibitor, single point]
Cc1ccc(S(=O)(=O)N2CCOCC2)cc1C(=O)Nc1nc(-c2cccnc2)cs1	active: 11.6 µM
CCOc1ccc(OCC)c(NC(=O)Nc2ccc3c(c2)N(C)C(=O)CS3)c1	inconclusive: 23.1 µM [inhibitor, single point]
COc1ccc(CNCc2ccc(OC)c3ccccc23)cc1	inactive
S=C(Nc1ccc(Cc2ccncc2)cc1)Nc1cccc(Cl)c1	inactive
O=C(COc1ccc(Cl)cc1)c1ccc(O)cc1O	inconclusive: 8.2 µM [activator, partial curve]
CSc1ccc(Cl)c(C(=O)NCCOc2ccccc2)c1	inconclusive: 10 µM [activator, partial curve, poor fit]
Cc1nn(CC(=O)N2CCN(c3cccc(C(F)(F)F)c3)CC2)c(=O)c2cccn12	inactive
Cc1ccc(S(=O)(=O)N2CCN(C(=O)c3cc(C4CC4)nc4c3cnn4C(C)C)CC2)cc1	inconclusive: 32.6 µM [inhibitor, partial curve, poor fit]
COC(=O)c1ccc(N(C(=O)c2ccco2)C(C(=O)NC2CCCC2)c2ccco2)cc1 (stereo unspecified)	inactive
O=C(Nc1ccc(NC(=O)c2ccccc2)nc1)c1ccncc1	inconclusive: 16.4 µM [activator, partial curve]
O=C(c1ccc(F)cc1F)N1CCN(c2n[nH]c(=O)[nH]c2=O)CC1	inactive
Cc1cc(NC(=O)c2cc(-c3cccs3)nc3ccccc23)no1	inconclusive: 14.6 µM [inhibitor, partial curve]
C=CCNC(=S)NN=C1CCCCCCC1	inactive
CCCc1ccc(/C=C2\C(=O)c3ccccc3C(O)=C2C(=O)OCC)cc1	inconclusive: 23.1 µM [activator, single point]
Cc1ccc(S(=O)(=O)N2CCCCC2)cc1NC(=O)COC(=O)c1cccn1C	inconclusive: 6.51 µM [inhibitor, single point]
CCc1c(C)nc(N2CCN(c3ccccc3F)CC2)[nH]c1=O	inactive
CC(=O)N1CCc2cc(C(=O)CN3CCN(c4cccc(Cl)c4)CC3)ccc21	inconclusive: 20.6 µM [inhibitor, single point]
Oc1ccc(Nc2nnc(-c3ccc(O)cc3)c3ccccc23)cc1	inconclusive: 13 µM [inhibitor, partial curve]
Cc1ccccc1NC(=S)N=Nc1c(O)n(C)c2ccc(S(=O)(=O)N3CCOCC3)cc12	inactive
COc1ccc(CN2CCN(C(=O)c3ccc(-c4ccccc4)cc3)CC2)c(OC)c1OC	inactive

Arranged by formula weight (rising): three of the compounds above.
SMILES	Potency
Cc1nn(CC(=O)N2CCN(c3cccc(C(F)(F)F)c3)CC2)c(=O)c2cccn12	inactive
COCCn1c(=O)[nH]c2cc(C(=O)N3CCN(c4ccc(OC)cc4)CC3)ccc2c1=O	inconclusive: 18.3 µM [inhibitor, single point]
COc1ccc(CN2CCN(C(=O)c3ccc(-c4ccccc4)cc3)CC2)c(OC)c1OC	inactive

(continued)

SMILES	Potency
CCOC(=O)c1c(C)[nH]c(C(=O)C(C)Sc2ccc(Cl)cc2)c1C (stereo unspecified)	inconclusive: 11.2 µM [activator, single point]
CC1CCC(=C(C#N)c2nc(-c3cc4ccccc4oc3=O)cs2)CC1 (stereo unspecified)	inconclusive: 2.59 µM [activator, full curve]
COc1ccc(OCC(=O)O/N=C(\N)Cc2ccc(Cl)cc2Cl)cc1	inconclusive: 29.1 µM [activator, single point]
Cc1ccc(/C=N/n2c(-c3ccc(Cl)cc3)n[nH]c2=S)s1	inconclusive: 25.9 µM [activator, single point]
O=C(CSc1ccsc1[N+](=O)[O-])N1CCN(c2ccccc2)CC1	inactive
CCC(=O)c1cc(F)ccc1OCC(=O)N1CCN(c2ccc(F)cc2)CC1	inconclusive: 23.1 µM [inhibitor, partial curve, poor fit]
NNC(=S)NCc1ccccc1	inconclusive: 2.91 µM [inhibitor, full curve]
CC(=O)c1cccc(NC(=O)CCC2CCCC2)c1	inconclusive: 23.1 µM [activator, partial curve, poor fit]
Cc1ccc(C(=O)Nc2ccc(C(=O)N3CCCCC3)cc2)cc1	inactive
Cc1ccc(Oc2c(C(N)=O)cc([N+](=O)[O-])cc2[N+](=O)[O-])cc1	inconclusive: 29.1 µM [activator, single point]
CCN(C(=O)COC(=O)c1ccccc1Nc1cccc(C)c1C)C1CCS(=O)(=O)C1 (stereo unspecified)	inconclusive: 29.1 µM [inhibitor, partial curve, poor fit]
CC(=O)Nc1nc2ccccc2n1Cc1ccc(Cl)cc1	active: 13 µM
Cc1ccccc1-c1cc2nc(C)c(C)c(=O)n2[nH]1	inconclusive: 20.6 µM [activator, partial curve]
Cc1ccc(C)c(NC(=O)CCc2c(C)nn(-c3ccc(N4CCCCC4)nn3)c2C)c1	inconclusive: 20.6 µM [inhibitor, single point]
O=C(/C=C/c1ccccc1)Nc1ccc(Br)cn1	inconclusive: 11.6 µM [activator, partial curve]
O=C1/C(=C\Nc2ccc(OC(F)(F)F)cc2)CCN1c1ncccn1	inconclusive: 11.6 µM [activator, partial curve]
CN(C)S(=O)(=O)c1ccc(C(=O)NCCc2ccco2)cc1	inconclusive: 14.6 µM [activator, partial curve]
COc1cccc2cc(C(=O)NCC3CCCO3)c(=O)oc12 (stereo unspecified)	inconclusive: 20.6 µM [activator, single point]
CN(c1ccc(C(=O)Nc2ccc3c(c2)OCCO3)cc1)S(C)(=O)=O	inconclusive: 2.59 µM [activator, full curve]
CCN(CC)S(=O)(=O)c1cc(NC(=O)c2ccc3c(c2)NC(=O)C(C)S3)ccc1C (stereo unspecified)	inconclusive: 9.2 µM [inhibitor, partial curve, poor fit]
O=C(Nc1ccc(Cl)cc1C(=O)Nc1ccccn1)c1ccco1	inconclusive: 23.1 µM [inhibitor, single point]
CCOC(=O)c1cc(-c2ccncc2)nc2c1c(C)nn2-c1ccccn1	active: 23.1 µM
O=C(CO)C(O)C(O)C(O)CO (stereo unspecified)	inactive
COc1ccc(C(c2nnnn2Cc2ccccc2)N2CCN(c3nc4ccccc4s3)CC2)cc1 (stereo unspecified)	inconclusive: 20.6 µM [inhibitor, single point]

SMILES	Potency
COc1ccc(-n2ncc3c2CC(C)(C)CC3NC(=O)c2ocnc2C)cc1 (stereo unspecified)	inactive
COc1ccccc1CNC(=O)COC(=O)COc1ccccc1F	inactive
CCN(CC)S(=O)(=O)c1cc(NC(=O)C(CC(C)C)NC(N)=O)ccc1C (stereo unspecified)	inactive
Cc1cc(C)cc(-n2c(SCC(=O)NCc3ccc4c(c3)OCO4)nc3ccccc3c2=O)c1	inconclusive: 23.1 µM [inhibitor, single point]
Cc1ccc(C(=O)NCc2ccccc2)c(F)c1F	inconclusive: 16.4 µM [activator, single point]
COc1ccc(CNCCC(c2ccc(OC(C)C)cc2)c2ccccc2OC)cc1OC (stereo unspecified)	inconclusive: 20.6 µM [inhibitor, single point]
Cc1cc(C(=O)NCc2csc(-c3ccccc3)n2)no1	inconclusive: 18.3 µM [activator, single point]
CC(C)(C)OC(=O)CNC(=O)c1nc[nH]c1C(=O)N1CCc2ccccc2C1	inactive
CCOc1ccc(C(=O)/C=C/Nc2ccc(S(=O)(=O)Nc3cc(C)nc(C)n3)cc2)cc1	inconclusive: 16.4 µM [activator, partial curve]
CCCc1c(C(=O)N/N=C/c2cccs2)nnn1-c1nonc1N	inactive
O=C(O)CCCC(=O)Nc1ccc(Sc2ccc([N+](=O)[O-])cc2)cc1	inconclusive: 0.731 µM [inhibitor, single point]
CC(OC(=O)Cn1cnc2c1c(=O)n(C)c(=O)n2C)C(=O)NCc1ccccc1 (stereo unspecified)	inconclusive: 20.6 µM [activator, single point]
CCOc1cccc(-c2nnc3sc(-c4cc(OC)c(OC)c(OC)c4)nn23)c1	active: 3.26 µM
O=C(CC(=O)c1ccccc1O)c1ccc(F)cc1	inconclusive: 20.6 µM [activator, partial curve]
O=C(CSc1ncccc1-c1nc2ccccc2[nH]1)NCc1ccco1	inactive
O=C(/C=C/c1ccccc1Cl)Nn1cnc2ccccc2c1=O	inconclusive: 14.6 µM [activator, partial curve]
CCc1c(C(=O)c2ccc(Cl)cc2)oc2c(C)c3oc(=O)cc(C)c3cc12	inconclusive: 18.4 µM [activator, single point]
COc1ccc(C(=O)Nc2ccc(N3CCOCC3)cc2)cc1OC	inconclusive: 13 µM [activator, partial curve]
O=C(NC1CCN(Cc2ccccc2)CC1)c1cncc(Br)c1	inactive
O=C(/C=C/c1ccccc1)N1CCN(c2ccccn2)CC1	inconclusive: 23.1 µM [activator, partial curve]
C=CCNc1nc(Nc2ccccc2F)nc(OCC)n1	inconclusive: 23.1 µM [activator, partial curve]
Cc1cc(C(=O)NCc2ccccc2)c(=O)[nH]c1C	inconclusive: 16.4 µM [activator, partial curve]
O=C(O)c1ccc(S(=O)(=O)c2ccc3c(c2)C(=O)N(NC(=O)c2ccc(O)cc2)C3=O)cc1	inactive

Of the compounds above, 11 have a Cl atom:
SMILES	Potency
S=C(Nc1ccc(Cc2ccncc2)cc1)Nc1cccc(Cl)c1	inactive
O=C(COc1ccc(Cl)cc1)c1ccc(O)cc1O	inconclusive: 8.2 µM [activator, partial curve]
CSc1ccc(Cl)c(C(=O)NCCOc2ccccc2)c1	inconclusive: 10 µM [activator, partial curve, poor fit]
CC(=O)N1CCc2cc(C(=O)CN3CCN(c4cccc(Cl)c4)CC3)ccc21	inconclusive: 20.6 µM [inhibitor, single point]
CCOC(=O)c1c(C)[nH]c(C(=O)C(C)Sc2ccc(Cl)cc2)c1C (stereo unspecified)	inconclusive: 11.2 µM [activator, single point]
COc1ccc(OCC(=O)O/N=C(\N)Cc2ccc(Cl)cc2Cl)cc1	inconclusive: 29.1 µM [activator, single point]
Cc1ccc(/C=N/n2c(-c3ccc(Cl)cc3)n[nH]c2=S)s1	inconclusive: 25.9 µM [activator, single point]
CC(=O)Nc1nc2ccccc2n1Cc1ccc(Cl)cc1	active: 13 µM
O=C(Nc1ccc(Cl)cc1C(=O)Nc1ccccn1)c1ccco1	inconclusive: 23.1 µM [inhibitor, single point]
O=C(/C=C/c1ccccc1Cl)Nn1cnc2ccccc2c1=O	inconclusive: 14.6 µM [activator, partial curve]
CCc1c(C(=O)c2ccc(Cl)cc2)oc2c(C)c3oc(=O)cc(C)c3cc12	inconclusive: 18.4 µM [activator, single point]
